In PMC9723619:
Read-outs that look alike come from different tables or passages of the source. These are yes or no findings as the source states them, for the method shown. Binding seen in cells or lysates may run through a third protein. A yes stands for co-enrichment or nearness to the bait. Other partners may have been found. For some of these results: Sequences can lack the tags named with a protein.

Chains of the proteins cited; added tags and fusions are not shown.
UniProt P41819: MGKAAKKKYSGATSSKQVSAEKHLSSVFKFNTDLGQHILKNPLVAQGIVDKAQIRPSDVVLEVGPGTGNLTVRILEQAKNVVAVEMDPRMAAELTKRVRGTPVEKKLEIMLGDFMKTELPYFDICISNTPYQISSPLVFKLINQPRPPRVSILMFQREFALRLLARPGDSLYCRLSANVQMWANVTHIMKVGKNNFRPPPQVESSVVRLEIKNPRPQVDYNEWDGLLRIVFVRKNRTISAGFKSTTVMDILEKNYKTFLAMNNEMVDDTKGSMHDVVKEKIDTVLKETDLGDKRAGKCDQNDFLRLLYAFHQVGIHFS
UniProt P40160: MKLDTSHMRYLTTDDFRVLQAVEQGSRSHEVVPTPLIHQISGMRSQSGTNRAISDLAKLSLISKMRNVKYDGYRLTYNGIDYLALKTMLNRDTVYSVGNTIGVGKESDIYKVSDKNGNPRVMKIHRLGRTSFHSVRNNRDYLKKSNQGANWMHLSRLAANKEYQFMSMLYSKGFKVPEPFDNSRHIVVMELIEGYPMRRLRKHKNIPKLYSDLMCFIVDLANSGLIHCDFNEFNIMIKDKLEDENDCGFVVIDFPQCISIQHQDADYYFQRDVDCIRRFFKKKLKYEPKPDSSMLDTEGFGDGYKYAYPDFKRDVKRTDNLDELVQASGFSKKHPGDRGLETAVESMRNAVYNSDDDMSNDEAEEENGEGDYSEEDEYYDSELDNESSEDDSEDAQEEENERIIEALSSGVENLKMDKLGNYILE

T1: Slx9 (S. cerevisiae), first bait of the split-tag purification (S. cerevisiae) (UniProt P53251)
T1 sequence: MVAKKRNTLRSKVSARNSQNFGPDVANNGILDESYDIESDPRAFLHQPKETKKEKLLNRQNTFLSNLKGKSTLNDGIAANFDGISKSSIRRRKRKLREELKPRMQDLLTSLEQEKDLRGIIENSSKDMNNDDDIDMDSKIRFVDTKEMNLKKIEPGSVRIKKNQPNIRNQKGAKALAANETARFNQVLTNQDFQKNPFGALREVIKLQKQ

T2: Slx9 (S. cerevisiae), first bait of the split-tag purification (S. cerevisiae), P53251
T2 chain: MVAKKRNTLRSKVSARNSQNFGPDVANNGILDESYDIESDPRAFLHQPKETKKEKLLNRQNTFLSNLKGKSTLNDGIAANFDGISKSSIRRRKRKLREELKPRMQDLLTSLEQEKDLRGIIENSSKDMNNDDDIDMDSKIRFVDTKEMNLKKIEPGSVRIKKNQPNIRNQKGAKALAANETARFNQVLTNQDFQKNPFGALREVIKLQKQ


Tests used:
Assay in all cases: affinity purification with mass spectrometry; split-tag tandem affinity purification from S. cerevisiae lysate: first Slx9 on IgG Sepharose with TEV cleavage, then Dim1 on Flag-agarose; 50 mM Tris-HCl pH 7.5, 150 mM NaCl, 2 mM MgCl2; Coomassie bands identified by MALDI-TOF
[1] = molecular target: Dim1 (S. cerevisiae), second bait of the split-tag purification (S. cerevisiae) (UniProt P41819)
[2] = molecular target: T1, Slx9 (S. cerevisiae), first bait of the split-tag purification (S. cerevisiae)
[3] = molecular target: T2, Slx9 (S. cerevisiae), first bait of the …; conditions: remark: other sources report otherwise
[4] = molecular target: Dim1 (S. cerevisiae), second bait of the split-tag purification (S. cerevisiae) (UniProt P41819); remark: listed apart in the source
[5] = molecular target: T1, Slx9 (S. cerevisiae), first bait of the split-tag purification (S. cerevisiae); remark: listed apart in the source

Row | Molecule | binding [2] | binding [4] | also measured
1 | Dim1 (S. cerevisiae), second bait of the split-tag purification (from UniProt P41819 1-318) (enzyme) | binds |  | 
2 | Ltv1 (S. cerevisiae), P34078 1-463 (protein) MSKKFSSKNSQRYVVVHRPHDDPSFYDTDASAHVLVPVSNPNKTSPEADLRKKDVSSTKPKGRRAHVGEAALYGINFDDSEYDYTQHLKPIGLDPENSIFIASKGNEQKVEKKNIEDLFIEPKYRRDEIEKDDALPVFQRGMAKPEYLLHQQDTTDEIRGFKPDMNPALREVLEALEDEAYVVNDDVVVEDISKKTQLQGDNYGEEEKEDDIFAQLLGSGEAKDEDEFEDEFDEWDIDNVENFEDENYVKEMAQFDNIENLEDLENIDYQADVRRFQKDNSILEKHNSDDEFSNAGLDSVNPSEEEDVLGELPSIQDKSKTGKKKRKSRQKKGAMSDVSGFSMSSSAIARTETMTVLDDQYDQIINGYENYEEELEEDEEQNYQPFDMSAERSDFESMLDDFLDNYELESGGRKLAKKDKEIERLKEAADEVSKGKLSQRRNRERQEKKKLEKVTNTLSSLKF |  |  | binding [3]: binds
3 | Ltv1 (S. cerevisiae) (protein, UniProt P34078 1-463) MSKKFSSKNSQRYVVVHRPHDDPSFYDTDASAHVLVPVSNPNKTSPEADLRKKDVSSTKPKGRRAHVGEAALYGINFDDSEYDYTQHLKPIGLDPENSIFIASKGNEQKVEKKNIEDLFIEPKYRRDEIEKDDALPVFQRGMAKPEYLLHQQDTTDEIRGFKPDMNPALREVLEALEDEAYVVNDDVVVEDISKKTQLQGDNYGEEEKEDDIFAQLLGSGEAKDEDEFEDEFDEWDIDNVENFEDENYVKEMAQFDNIENLEDLENIDYQADVRRFQKDNSILEKHNSDDEFSNAGLDSVNPSEEEDVLGELPSIQDKSKTGKKKRKSRQKKGAMSDVSGFSMSSSAIARTETMTVLDDQYDQIINGYENYEEELEEDEEQNYQPFDMSAERSDFESMLDDFLDNYELESGGRKLAKKDKEIERLKEAADEVSKGKLSQRRNRERQEKKKLEKVTNTLSSLKF |  | binds | 

Continued, in another order:

Row | binding [2] | binding [4] | Molecule | also measured
4 | binds |  | Rio2 (S. cerevisiae) (from UniProt P40160 1-425) (enzyme) | binding [1]: binds
5 |  | binds | Nob1 (S. cerevisiae) (enzyme, UniProt Q08444 1-459) MTENQTAHVRALILDATPLITQSYTHYQNYAQSFYTTPTVFQEIKDAQARKNLEIWQSLGTLKLVHPSENSIAKVSTFAKLTGDYSVLSANDLHILALTYELEIKLNNGDWRLRKKPGDALDASKADVGTDGKQKLTEDNKKEEDSESVPKKKNKRRGGKKQKAKREAREAREAENANLELESKAEEHVEEAGSKEQICNDENIKESSDLNEVFEDADDDGDWITPENLTEAIIKDSGEDTTGSLGVEASEEDRHVALNRPENQVALATGDFAVQNVALQMNLNLMNFMSGLKIKRIRNYMLRCHACFKIFPLPKDGKPKHFCASCGGQGTLLRCAVSVDSRTGNVTPHLKSNFQWNNRGNRYSVASPLSKNSQKRYGKKGHVHSKPQENVILREDQKEYEKVIKQEEWTRRHNEKILNNWIGGGSADNYISPFAITGLKQHNVRIGKGRYVNSSKRRS | binding [5]: binds
